The results in this text go back to paper PMC11414381.

Chains of the proteins cited; added tags and fusions are not shown.
UniProt P05412: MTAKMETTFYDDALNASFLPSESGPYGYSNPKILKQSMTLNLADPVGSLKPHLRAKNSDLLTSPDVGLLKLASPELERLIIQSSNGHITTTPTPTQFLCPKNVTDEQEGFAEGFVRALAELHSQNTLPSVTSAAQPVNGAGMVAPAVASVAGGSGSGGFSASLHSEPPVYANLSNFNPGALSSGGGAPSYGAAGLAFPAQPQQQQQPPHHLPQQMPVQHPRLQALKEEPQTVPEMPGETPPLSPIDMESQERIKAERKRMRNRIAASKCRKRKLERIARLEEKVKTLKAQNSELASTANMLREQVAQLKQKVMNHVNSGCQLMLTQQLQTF

The target in the assay is T1, SIX4 (sine oculis homeobox homolog 4) (UniProt Q9UIU6).
T1 sequence: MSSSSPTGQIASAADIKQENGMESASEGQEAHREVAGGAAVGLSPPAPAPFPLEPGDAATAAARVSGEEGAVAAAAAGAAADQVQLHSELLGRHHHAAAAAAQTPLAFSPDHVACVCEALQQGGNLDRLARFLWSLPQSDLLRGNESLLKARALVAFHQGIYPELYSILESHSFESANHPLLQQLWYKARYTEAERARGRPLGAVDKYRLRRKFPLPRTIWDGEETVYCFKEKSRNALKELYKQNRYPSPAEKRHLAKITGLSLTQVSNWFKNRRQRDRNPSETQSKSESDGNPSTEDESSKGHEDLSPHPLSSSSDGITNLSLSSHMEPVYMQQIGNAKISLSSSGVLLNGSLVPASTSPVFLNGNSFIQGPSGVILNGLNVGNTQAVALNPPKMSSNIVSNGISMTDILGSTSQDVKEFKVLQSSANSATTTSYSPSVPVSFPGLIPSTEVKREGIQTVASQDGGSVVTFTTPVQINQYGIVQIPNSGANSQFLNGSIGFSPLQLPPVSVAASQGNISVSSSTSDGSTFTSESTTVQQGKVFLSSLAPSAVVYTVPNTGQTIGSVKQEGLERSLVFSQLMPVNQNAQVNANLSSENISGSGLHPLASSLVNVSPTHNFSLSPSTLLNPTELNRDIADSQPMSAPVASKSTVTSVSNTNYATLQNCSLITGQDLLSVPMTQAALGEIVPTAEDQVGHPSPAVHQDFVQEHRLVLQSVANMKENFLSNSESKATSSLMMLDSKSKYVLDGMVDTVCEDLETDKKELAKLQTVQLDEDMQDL
Put plainly: co-IP; cell lysates (immunoprecipitation lysis buffer) with specific antibodies or normal IgG (20 ug/mL) at 4 °C overnight; protein A/G magnetic beads 30 min at RT; five washes in 50 mM Tris, 150 mM NaCl, 0.2% Triton X-100, 0.2% Tween, pH 7.5; immunoblotting; input diluted 1/10.

Results are given in words; binding and its absence hold for the method and conditions named. Binding seen in cells or lysates may run through a third protein. Some entries that bind do so weakly or less than the wild type.

Take C-JUN (from UniProt P05412 1-331): the binding result was “binds”.
